Test results taken from the supplement of paper PMC6078165.

Test system: MDAMB436
Test: relative JC-1 red fluorescence (viability) vs pre-drug, coculture with fibroblast (fraction); higher = more viable cancer cells
Method: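 JC-1 labelled TNBC cells cocultured 1:1 (1,500 cells each) with CellTrace Violet stained primary or stromal fibroblasts in 384-well plates in FluoroBrite medium, treated with one of 42 anticancer drugs at 0.1, 1, 10 or 100 uM. JC-1 red fluorescence (mitochondrial integrity in cancer cells only) was read by plate reader every 8 h for 72 h. Values are normalised to each well's pre-drug value. The stock of one drug was tenfold lower, so its dose labels may be too high.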

COc1cc([C@@H]2c3cc4c(cc3[C@@H](O[C@@H]3O[C@@H]5CO[C@@H](C)O[C@H]5[C@H](O)[C@H]3O)[C@H]3COC(=O)[C@H]23)OCO4)cc(OC)c1O [Etoposide]
relative JC-1 red fluorescence
Settings	8 h	16 h	24 h	32 h	40 h	48 h	56 h	64 h	72 h
10 µM, coculture fibroblast: C12385	0.789	0.7416	0.7436	0.67	0.636	0.619	0.61	0.6	0.598
10 µM, coculture fibroblast: H6013	0.858	0.8169	0.817	0.8143	0.817	0.844	0.798	0.786	0.741
10 µM, coculture fibroblast: H6019	0.773	0.712	0.674	0.609	0.575	0.56	0.526	0.499	0.486
10 µM, coculture fibroblast: H6076	0.663	0.601	0.596	0.555	0.56	0.535	0.556	0.556	0.551
10 µM, coculture fibroblast: H6231	0.648	0.564	0.59	0.507	0.498	0.476	0.484	0.464	0.456
10 µM, coculture fibroblast: HADF	0.807	0.755	0.747	0.725	0.712	0.751	0.683	0.685	0.644
10 µM, coculture fibroblast: HCFa	0.814	0.805	0.807	0.801	0.805	0.844	0.783	0.788	0.741
10 µM, coculture fibroblast: HCPF	0.661	0.611	0.636	0.588	0.593	0.574	0.578	0.572	0.569
10 µM, coculture fibroblast: HHSteC	0.8218	0.805	0.792	0.767	0.771	0.794	0.74	0.732	0.685
10 µM, coculture fibroblast: HMF	0.624	0.565	0.554	0.508	0.515	0.487	0.506	0.493	0.497
10 µM, coculture fibroblast: HPFa	0.8573	0.821	0.811	0.782	0.794	0.822	0.757	0.746	0.69
10 µM, coculture fibroblast: HUF	0.8153	0.7514	0.7319	0.664	0.608	0.589	0.5714	0.5624	0.559
10 µM, coculture fibroblast: Hs5	0.68	0.655	0.661	0.614	0.61	0.578	0.603	0.578	0.585
10 µM, coculture fibroblast: Hs27A	0.8074	0.761	0.753	0.743	0.741	0.827	0.75	0.763	0.702
10 µM, coculture fibroblast: Hs343T	0.689	0.649	0.63097	0.587	0.584	0.551	0.545	0.54	0.542
10 µM, coculture fibroblast: WS1	0.773	0.709	0.689	0.607	0.571	0.55	0.536	0.518	0.511
100 µM, coculture fibroblast: C12385	0.793	0.775	0.7852	0.728	0.694	0.691	0.684	0.68	0.6845
100 µM, coculture fibroblast: H6013	0.841	0.834	0.837	0.845	0.8316	0.865	0.83	0.823	0.785
100 µM, coculture fibroblast: H6019	0.772	0.744	0.7472	0.7085	0.691	0.701	0.685	0.69	0.692
100 µM, coculture fibroblast: H6076	0.718	0.64335	0.669	0.638	0.63	0.6158	0.636	0.64	0.648
100 µM, coculture fibroblast: H6231	0.759	0.674	0.788	0.727	0.739	0.732	0.745	0.745	0.744
100 µM, coculture fibroblast: HADF	0.856	0.832	0.822	0.806	0.805	0.829	0.774	0.767	0.72
100 µM, coculture fibroblast: HCFa	0.8226	0.809	0.805	0.801	0.816	0.854	0.806	0.821	0.785
100 µM, coculture fibroblast: HCPF	0.6896	0.66518	0.704	0.661	0.657	0.643	0.636	0.638	0.638
100 µM, coculture fibroblast: HHSteC	0.8295	0.835	0.837	0.824	0.837	0.874	0.82	0.814	0.772
100 µM, coculture fibroblast: HMF	0.729	0.672	0.679	0.642	0.631	0.608	0.614	0.602	0.601
100 µM, coculture fibroblast: HPFa	0.88749	0.873	0.879	0.853	0.876	0.901	0.834	0.826	0.775
100 µM, coculture fibroblast: HUF	0.833	0.7827	0.794	0.73691	0.708	0.698	0.6863	0.6844	0.6871
100 µM, coculture fibroblast: Hs5	0.768	0.7165	0.7219	0.6747	0.66	0.619	0.622	0.604	0.593
100 µM, coculture fibroblast: Hs27A	0.846	0.835	0.855	0.872	0.87	0.912	0.899	0.914	0.85
100 µM, coculture fibroblast: Hs343T	0.732	0.651	0.641	0.606	0.5808	0.548	0.54	0.5342	0.5239
100 µM, coculture fibroblast: WS1	0.778	0.747	0.758	0.701	0.684	0.686	0.682	0.679	0.688

The reference is the same well before dosing, and untreated signal decays as well.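 Labels refer to human fibroblasts, largely primary: uterine (C12385, HUF), lung (H6013), bone (Hs27A), adrenal (HADF), skin (WS1), plus mammary HMF and breast cancer-associated Hs343T. Cancer lines are basal-like or mesenchymal-like triple-negative breast cancer. The paper counts as hits responses shifting over 3x the replicate standard deviation. The tissue of the other fibroblasts is not given here.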
